Data: patent US12427210B2, “Compounds comprising a fibroblast activation protein ligand and use thereof” (priority 2019, dated 2025)
For at least one compound, name, drawing or mass did not settle the structure.

Biological target: Ca2+ channel (L, dihydropyridine site)
Details: read-out: Ki Ref; reference compound

CCOC(=O)C1=C(C)NC(C)=C(C(=O)OC)C1c1cccc([N+](=O)[O-])c1 (stereo not shown) [nitrendipine, reference compound]
Ki: 0.14 nM
